Data on one substance can be found in article PMC10044876.

The target in this test is T1, His-tagged TrxC (thioredoxin-2) (Rhodobacter capsulatus) (UniProt D5AMH1).
T1 sequence: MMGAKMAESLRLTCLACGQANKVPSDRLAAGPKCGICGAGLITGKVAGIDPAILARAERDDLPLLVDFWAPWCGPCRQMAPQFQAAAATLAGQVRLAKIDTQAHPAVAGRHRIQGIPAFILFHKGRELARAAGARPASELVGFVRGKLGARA
Kind of test: pull-down; His-tagged TrxC bound to Ni-NTA agarose, mixed with SqrR-FLAG (protein 5 uM), 3 h at 4 °C; 20 mM Tris-HCl pH 8.0, 500 mM NaCl, 20 mM imidazole, 10% glycerol; washed with 20 column volumes, eluted with 500 mM imidazole; eluates analysed by Western blot with anti-FLAG antibody; both purified. In general terms: Immunoblotting shows a protein as a band on a membrane.

No constants are given. Whether binding was seen depends on the method and setting. A result given as binding can be weak or reduced; the word gives no strength. Sequences can lack the tags named with a protein.

On to “Recombinant FLAG-tagged SqrR (Rhodobacter capsulatus)”, for which the binding entry is “binds”.
